The assay concerns the target Fyn kinase (mouse (endogenous in Oli-neu)) (UniProt P39688). Put plainly: co-IP; Fyn immunoprecipitated from precleared Oli-neu lysates with rabbit anti-Fyn antibody bound to Protein A-Sepharose, 4 hours at 4°C; lysis buffer 50 mM Tris pH 7.4, 150 mM NaCl, 1 mM EDTA, 1% Nonidet P-40, 0.25% sodium deoxycholate; Western blot of the precipitate.

By UniProt entry, the sequences of proteins in these tests, tags left out.
UniProt P39688: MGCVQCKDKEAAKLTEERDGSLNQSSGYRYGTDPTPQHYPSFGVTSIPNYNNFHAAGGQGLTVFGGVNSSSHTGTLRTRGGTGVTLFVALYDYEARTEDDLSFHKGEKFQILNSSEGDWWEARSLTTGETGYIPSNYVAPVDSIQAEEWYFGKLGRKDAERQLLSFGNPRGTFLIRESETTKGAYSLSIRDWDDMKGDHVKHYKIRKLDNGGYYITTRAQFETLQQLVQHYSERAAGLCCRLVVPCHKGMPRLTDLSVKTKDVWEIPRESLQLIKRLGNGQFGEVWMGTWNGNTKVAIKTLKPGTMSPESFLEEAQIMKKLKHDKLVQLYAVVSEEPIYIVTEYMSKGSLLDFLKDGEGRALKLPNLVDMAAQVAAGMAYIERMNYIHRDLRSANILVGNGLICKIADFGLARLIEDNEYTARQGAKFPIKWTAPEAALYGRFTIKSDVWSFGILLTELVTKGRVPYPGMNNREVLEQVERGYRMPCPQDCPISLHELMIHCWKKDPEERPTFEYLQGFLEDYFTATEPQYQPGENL

Results are given in words; binding and its absence hold for the method and conditions named. In cells and extracts the contact can be indirect. Some results given as binding are weak or reduced against the parent protein; the word gives no strength.

B1: p130Cas (crk-associated substrate) (protein, UniProt Q61140 1-874)
chain: MTVPNVLAKALYDNVAESPDELSFRKGDIMTVLERDTQGLDGWWLCSLHGRQGIVPGNRLKILVGMYDKKPVGPGPGPPATPPQPQPSLPQGVHAPVPPASQYSPMLPTAYQPQSDNVYLVPTPSKTQQGLYQAPGPNPQFQSPPAKQTSTFSKQTPHHSFPSPATDLYQVPPGPGSPAQDIYQVPPSAGIGHDIYQVPPSLDTRGWEGTKPPAKVVVPTRVGQGYVYEAAQTEQDEYDTPRHLLAPGPQDIYDVPPVRGLLPNQYGQEVYDTPPMAVKGPNGRDPLLDVYDVPPSVEKGLLSSSHHSVYDVPPSVSKDVPDGPLLREETYDVPPAFAKPKPFDPTRHPLILAAPPPDSPAAEDVYDVPPPAPDLYDVPPGLRRPGPGTLYDVPRERVLPPEVADGSVVDDGVYAVPPPAEREAPTDGKRLSASSTGSTRSSQSASSLEVVVPGREPLELEVAVESLARLQQGVSTTVAHLLDLVGSASGPGGWRGTSEPQEPPAQDLKAAVAAVHGAVHELLEFARGAVSNATHTSDRTLHAKLSRQLQKMEDVYQTLVVHGQVLDSGRGSPGFTPEDLDRLVACSRAVPEDAKQLASFLHGNASLLFRRTKAPGPGPEGSSSLHPNPTDKASSIQSRPLPSPPKFTSQDSPDGQYENSEGGWMEDYDYVHLQGKEEFEKTQKELLERGNIMRQGKGQLELQQLKQFERLEQEVSRPIDHDLANWTPAQPLVPGRTGGLGPSDRQLLLFYLEQCEANLTTLTDAVDAFFTAVATNQPPKIFVAHSKFVILSAHKLVFIGDTLSRQAKAADVRSQVTHYSNLLCDLLRGIVATTKAAALQYPSPSAAQDMVDRVKELGHSTQQFRRVLGQLAAA
Consider B1, for which the binding result is recorded as “binds”.
